# Primary screen of a compound library

By UniProt entry, the sequences of proteins in these tests, tags left out. Residues count along the entry.
UniProt I6X8D2, whole entry: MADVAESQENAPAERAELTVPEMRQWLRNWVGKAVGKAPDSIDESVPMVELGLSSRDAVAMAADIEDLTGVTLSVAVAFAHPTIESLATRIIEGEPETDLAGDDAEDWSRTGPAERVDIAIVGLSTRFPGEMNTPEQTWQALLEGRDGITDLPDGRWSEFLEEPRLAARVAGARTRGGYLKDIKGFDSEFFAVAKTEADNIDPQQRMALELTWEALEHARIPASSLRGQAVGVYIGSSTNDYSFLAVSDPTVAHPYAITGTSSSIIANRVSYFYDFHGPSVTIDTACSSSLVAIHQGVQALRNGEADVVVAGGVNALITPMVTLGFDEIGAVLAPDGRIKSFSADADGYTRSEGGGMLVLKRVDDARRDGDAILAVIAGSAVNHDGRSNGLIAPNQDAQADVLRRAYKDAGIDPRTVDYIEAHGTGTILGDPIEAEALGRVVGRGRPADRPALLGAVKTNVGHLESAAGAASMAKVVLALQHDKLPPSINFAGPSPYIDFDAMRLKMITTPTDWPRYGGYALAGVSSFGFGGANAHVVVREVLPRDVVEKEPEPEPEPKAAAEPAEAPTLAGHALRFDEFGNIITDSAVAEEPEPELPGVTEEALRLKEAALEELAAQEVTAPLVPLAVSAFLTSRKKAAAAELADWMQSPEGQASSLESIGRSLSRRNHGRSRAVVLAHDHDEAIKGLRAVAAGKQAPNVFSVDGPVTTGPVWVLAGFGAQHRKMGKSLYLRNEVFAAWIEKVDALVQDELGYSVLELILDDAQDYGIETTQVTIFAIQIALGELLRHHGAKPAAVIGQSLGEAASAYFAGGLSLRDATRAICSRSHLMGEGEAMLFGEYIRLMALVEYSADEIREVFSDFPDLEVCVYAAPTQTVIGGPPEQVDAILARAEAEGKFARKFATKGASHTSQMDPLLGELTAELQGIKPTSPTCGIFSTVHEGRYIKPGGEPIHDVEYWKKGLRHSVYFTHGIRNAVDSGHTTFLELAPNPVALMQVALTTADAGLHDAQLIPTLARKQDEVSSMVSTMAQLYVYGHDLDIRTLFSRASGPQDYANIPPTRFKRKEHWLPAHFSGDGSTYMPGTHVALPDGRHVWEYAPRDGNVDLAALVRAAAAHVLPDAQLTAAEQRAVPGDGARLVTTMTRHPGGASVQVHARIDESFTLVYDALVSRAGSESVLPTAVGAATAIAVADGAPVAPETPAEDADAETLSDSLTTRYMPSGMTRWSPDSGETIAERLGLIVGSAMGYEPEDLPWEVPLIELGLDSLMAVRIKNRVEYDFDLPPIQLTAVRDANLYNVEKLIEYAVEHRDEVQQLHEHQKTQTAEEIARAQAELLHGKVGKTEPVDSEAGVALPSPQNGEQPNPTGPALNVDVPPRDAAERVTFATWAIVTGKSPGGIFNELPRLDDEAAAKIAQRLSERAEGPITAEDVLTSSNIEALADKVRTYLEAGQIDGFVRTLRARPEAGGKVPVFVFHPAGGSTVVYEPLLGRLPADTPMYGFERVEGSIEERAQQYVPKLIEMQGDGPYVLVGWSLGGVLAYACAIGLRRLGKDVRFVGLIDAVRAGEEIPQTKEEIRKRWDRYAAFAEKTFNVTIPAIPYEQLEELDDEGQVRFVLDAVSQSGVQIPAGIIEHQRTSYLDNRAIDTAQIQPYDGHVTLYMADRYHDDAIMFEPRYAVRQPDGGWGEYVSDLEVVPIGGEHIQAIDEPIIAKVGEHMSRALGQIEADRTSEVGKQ
UniProt A4I591, 1-473: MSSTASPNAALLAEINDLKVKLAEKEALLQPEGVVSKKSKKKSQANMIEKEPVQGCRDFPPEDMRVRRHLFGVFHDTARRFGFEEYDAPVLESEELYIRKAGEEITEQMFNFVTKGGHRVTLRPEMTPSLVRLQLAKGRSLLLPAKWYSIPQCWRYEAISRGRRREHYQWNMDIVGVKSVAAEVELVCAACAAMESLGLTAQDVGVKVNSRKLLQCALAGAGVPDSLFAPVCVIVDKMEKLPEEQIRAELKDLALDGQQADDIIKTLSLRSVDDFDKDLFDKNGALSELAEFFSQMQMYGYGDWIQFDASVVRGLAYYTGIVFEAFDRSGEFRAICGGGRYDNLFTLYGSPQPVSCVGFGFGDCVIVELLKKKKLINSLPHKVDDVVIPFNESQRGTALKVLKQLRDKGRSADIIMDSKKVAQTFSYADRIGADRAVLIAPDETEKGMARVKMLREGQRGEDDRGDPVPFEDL

Data taken from ChEMBL document CHEMBL3988442, “University of Dundee, Small-Polar-MMV Screening Library” (2021).

The filed quantity is “Percent Effect” (%). How 0% and 100% were set is not recorded. Most values in the screen are low, and negative values occur. The compounds are a random part of those screened. Two or more numbers in one place are separate tests of the same structure; such repeats can differ widely. A dash means the value is not listed here; it may have been measured.

Leishmania in macrophages: 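Cell assay of Leishmania donovani living inside macrophages; the read-out is not stated. Tested at 30 µM. The record gives no direction; compounds that gave an IC50 in retests scored well above the rest, so higher reads as stronger inhibition. About 69,000 compounds were tested under these conditions; 1.5% (about 1,000) showed 50% or more at least once.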
Pks13 thioesterase: 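Enzyme assay of the thioesterase domain of polyketide synthase 13; the read-out is not stated. Target: Polyketide synthase Pks13, Mycobacterium tuberculosis (UniProt I6X8D2). Concentration: 30 µM. Higher reads as stronger inhibition (inferred from which compounds were picked for retests). Size under these conditions: about 67,000 compounds, about 300 of them at 50% or above in at least one test.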
LiHisRS: 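Enzyme assay of histidyl-tRNA synthetase; the read-out is not stated. Target: Histidine-tRNA ligase, Leishmania infantum (UniProt A4I591). Compounds at 30 µM. The record gives no direction; compounds that gave an IC50 in retests scored well above the rest, so higher reads as stronger inhibition. The assay is labelled LdHisRS but filed under L. infantum. Size under these conditions: about 69,000 compounds, about 410 of them at 50% or above in at least one test.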

| compound | Leishmania in macrophages | Pks13 thioesterase | LiHisRS |
|---|---|---|---|
| `CCc1c(C)sc2c1c(N)nc(=O)n2CCN(C)C` | -18.16 | -19.99 | 5.618 |
| `O=C(O)C(F)(F)F.O=C(O)C(F)(F)F.[H][C@@]12CN(C(=O)c3ccsc3)C[C@]1([H])OCCN2CCN1CCCC1` | 29.11 | - | - |
| `Cc1nc2cc(CNC(=O)C3CC(=O)N(C4CCCC4)C3)ccc2n1C` (stereo not given) | 2.689 | -8.817 | 18.48 |
| `Cc1cnc(CN2CCN(c3ccnc(-c4ccccc4)n3)CC2)cn1` | -43.83 | -16.17 | 16.48 |
| `Cn1ncc(Cl)c1C(=O)N1CCC(c2nnsc2S(C)(=O)=O)CC1` | 50.11 | -15.39 | 14.49 |
| `O=C(O)C(F)(F)F.c1cnc(N2CCC3(CCCN(Cc4ccncc4)C3)CC2)nc1` | 8.322 | - | - |
| `C[C@@H]1CN(C(=O)c2ccc(=O)[nH]c2)CC[C@@]1(O)C1CCOCC1` | 22.79 | -16.13 | 20 |
| `CCS(=O)(=O)N1CCc2nc(N3CCCC3)nc(N(C)C)c2CC1` | -18.31 | 17.22 | -5.172 |
| `O=C(NCC1CCOC1)c1csc(-c2ccco2)n1` (stereo not given) | 28.68 | -5.667 | 27.4 |
| `CCN1CCC2(CC1)CC(NC(=O)c1ccnnc1)c1ccccc12.O=C(O)C(F)(F)F` (stereo not given) | 16.66 | - | - |
| `COc1ccc(-c2cn([C@H](CO)CC(C)C)nn2)cn1` | -18.63 | 3.064 | 8.197 |
| `CC(O)CN1CCN(C(=O)c2cccc(CC#N)c2)CC1` (stereo not given) | 23.12 | -18.26 | 0 |
| `Cn1c(C(F)(F)F)nn(CCNC(=O)Nc2ccccc2Cl)c1=O` | -6.104 | -13.47 | -4.959 |
| `Cc1n[nH]c(C)c1NC(=O)CN(CC(O)c1ccc(F)cc1)C1CC1` (stereo not given) | 20.81 | -10.92 | 16.44 |
| `O=C1NCCN1C1CCN(Cc2nc(-c3ccc(F)cc3)no2)CC1` | 36.95 | -4.044 | 10.43 |
| `Cc1ccccc1OCC1CCCN(c2cc(N)nc(N)n2)C1` (stereo not given) | 98.85 | -5.401 | 72.29 |
| `CCn1nccc1C(=O)N1CCCCC1CCc1ccc(O)cc1` (stereo not given) | 9.369 | -1.526 | -10.96 |
| `CC(NC(=O)Cn1ccc2sccc2c1=O)c1ccccc1` (stereo not given) | 21.97 | -0.02562 | 5.435 |
| `COc1nc2c(cc1C(=O)N1CCCOC(Cn3cccn3)C1)CCC2` (stereo not given) | -25.16 | 7.335 | 0 |
| `CC(C)Cc1cc(C(=O)NCC2CCCN(Cc3ccco3)C2)on1` (stereo not given) | -1.498 | -29.63 | 15 |
| `O[C@@H]1CN(c2cnc3ccccc3n2)CC[C@H]1c1ccc2c(c1)OCO2` | 43 | 33.99 | 18.37 |
| `Nc1no[n+]([O-])c1C(=O)NCc1cccnc1` | 7.702 | -5.194 | 3.297 |
| `CC(C)N1CCC(c2nnc(CN3CCCC3)n2C2CC2)CC1` | 16.62 | -18.98 | 21.21 |
| `Cc1nc2ccccc2nc1CN1CCCC1c1c(C)nn(C)c1C` (stereo not given) | 18.21 | -7.408 | 21.62 |
| `O=C(CCNC(=O)c1cccc(OC(F)F)c1)Nc1cccnc1` | 12.7 | -11.34 | -2.74 |
| `COc1ccc(C2CCCN2S(=O)(=O)N(C)CC(C)C)cc1` (stereo not given) | -22.63 | -9.575 | 2.885 |
| `Cl.Cl.O=C1NC2(CCNCC2)CC1c1ccncc1` (stereo not given) | 49.9 | - | - |
| `O=C(O)[C@]12CCCN(Cc3cccs3)C[C@H]1CN(c1ncccn1)C2` | - | 33.02 | 22.22 |
| `O=C(O)C(F)(F)F.[H][C@@]12CCCO[C@]1([H])[C@H](N(C)C)CN2C(=O)Cc1cccc(F)c1` | -1.944 | - | - |
| `COc1ccc(-c2csc(N)c2C#N)cc1` | 15.17 | -55.82 | -7.895 |
| `Cc1cc(NCC2(O)CCOCC2)c2ccccc2n1` | -34.51 | -16.57 | 16.44 |
| `CCn1nc2c(cc1=O)CN(Cc1nc3ccccc3c(=O)[nH]1)CC2` | 9.236 | 1.054 | 25 |
| `CCc1nnc(CN(C)Cc2cccc(C(=O)Nc3ccnn3C)c2)o1` | 11.07 | -6.298 | 2.74 |
| `Cc1cc(NCC2CCCO2)cc(=O)n1C` (stereo not given) | 3.872 | 3.665 | 14.43 |
| `Cc1cc(S(C)(=O)=O)c(C)c(S(=O)(=O)N2CCCCCC2)c1` | 7.136 | 3.335 | 25 |
| `Cc1sc2nc(C(F)(F)F)nc(N3CCN(C)CC3)c2c1C` | 9.999 | -9.327 | 13.13 |
| `NC(=O)CCn1ccc(NC(=O)C2(c3ccc(F)cc3)CCC2)n1` | 23.3 | -3.219 | 4.839 |
| `CN(C)C(=O)CO[C@H]1CO[C@@]2(CCN(Cc3ccsc3)C2)C1.O=C(O)C(F)(F)F` | 39.07 | - | - |
| `Cc1cncc(C(=O)N2CCC3(CCCN(c4nncs4)C3)C2)c1` (stereo not given) | - | -9.745 | 22 |
| `O=C(c1cccc2c1OCO2)N1CCCC1Cn1cccn1` (stereo not given) | 11.4 | -13.12 | 8 |
| `CCN(CC)CC(=O)Nc1ccc(-n2ccc(C(N)=O)n2)cc1` | 13.86 | -20.27 | 17.58 |
| `CC(C)CN1CCC2(CCN(Cc3ccoc3)CC2)C1=O` | 33.79 | -1.621 | 34.15 |
| `COCCN(Cc1nc2c(cnn2C)c(=O)[nH]1)C(C)c1ccccc1` (stereo not given) | 5.536 | -7.032 | 1.754 |
| `Cc1noc(C)c1CCCNC(=O)Nc1ccc2c(c1)COC2` | -38.38 | -12.87 | -8.889 |
| `CN(C)C(=O)CCN1CC(c2ccccc2)(c2ccccc2)CCC1=O` | 2.412 | 2.64 | 15.49 |
| `Cc1nc(Nc2cnccn2)cc(C2CCN(c3ncccn3)C2)n1` (stereo not given) | 16.11 | -8.386 | 8 |
| `CNC(=O)c1cn[nH]c1C1CCCN1C(=O)c1cccnc1` (stereo not given) | 23.94 and 5.728 | 4.026 | 3.158 |
| `Cc1nc(C2(NCc3ccc(C#N)cc3F)CCCC2)no1` | 6.281 | -27.14 | 28.57 |
| `CC(=O)N1CCC(N2CC[C@H](c3nc4cc(F)ccc4o3)C2)CC1` | 38.25 | -27 | 24.32 |
| `CN(C)CCN1CCOCC2(CCN(Cc3ccc[nH]3)CC2)C1` | - | -21.03 | 22.22 |
| `CCSCCOC(=O)CCCc1ccc2c(c1)CC(=O)N2` | 35.34 | 0.1161 | 4.712 |
| `CCc1nc(CNC(=O)c2ccc(C(C)N3CCCCC3)o2)cc(=O)[nH]1` (stereo not given) | 21.81 | -27.42 | 2.74 |
| `Cc1ccc(CN2CCC3(CC2)CN(C(=O)c2cnccn2)CCO3)o1.O=C(O)C(F)(F)F` | 23.04 | - | - |
| `[H][C@@]12CN(Cc3ccccc3O)C[C@]1([H])OCC(=O)N2Cc1nccn1C` | -1.595 | - | - |
| `CCN(CCO)C[C@@H]1CN(c2nc(C)cc(C)n2)C[C@@H]1CO` | 8.47 | 2.602 | 8.434 |
| `C[C@@H](O)CNC(=O)CCc1nc2cccnc2[nH]1` | 19.9 | -10.43 | 26.32 |
| `CCOc1ccc(S(=O)(=O)NCCCc2ccc(N(C)C)cc2)cc1C` | 42.85 and 43.11 | 4.415 | 17.39 |
| `O=C(O)C(F)(F)F.c1ccc2c(c1)N(CC1CCOC1)CC21CCN(c2cnccn2)CC1` (stereo not given) | 37.52 | - | - |

Once more, the final 7:

| compound | Leishmania in macrophages | Pks13 thioesterase | LiHisRS |
|---|---|---|---|
| `CCc1nc(CNC(=O)c2ccc(C(C)N3CCCCC3)o2)cc(=O)[nH]1` (stereo not given) | 21.81 | -27.42 | 2.74 |
| `Cc1ccc(CN2CCC3(CC2)CN(C(=O)c2cnccn2)CCO3)o1.O=C(O)C(F)(F)F` | 23.04 | - | - |
| `[H][C@@]12CN(Cc3ccccc3O)C[C@]1([H])OCC(=O)N2Cc1nccn1C` | -1.595 | - | - |
| `CCN(CCO)C[C@@H]1CN(c2nc(C)cc(C)n2)C[C@@H]1CO` | 8.47 | 2.602 | 8.434 |
| `C[C@@H](O)CNC(=O)CCc1nc2cccnc2[nH]1` | 19.9 | -10.43 | 26.32 |
| `CCOc1ccc(S(=O)(=O)NCCCc2ccc(N(C)C)cc2)cc1C` | 42.85 and 43.11 | 4.415 | 17.39 |
| `O=C(O)C(F)(F)F.c1ccc2c(c1)N(CC1CCOC1)CC21CCN(c2cnccn2)CC1` (stereo not given) | 37.52 | - | - |